The source of these data is article PMC10148820.

Residue numbers refer to the chain shown, from its start. Names and notes keep the numbering of the source. No constants are given. Whether binding was seen depends on the method and setting. In cells and extracts the contact can be indirect. Some binding calls cover weakened binding; strength is not graded here. Tags and fused reporters may be left off the sequences shown.

In the assay the target is T1, Hog1-HIS (S. cerevisiae) (UniProt P32485).
T1 sequence: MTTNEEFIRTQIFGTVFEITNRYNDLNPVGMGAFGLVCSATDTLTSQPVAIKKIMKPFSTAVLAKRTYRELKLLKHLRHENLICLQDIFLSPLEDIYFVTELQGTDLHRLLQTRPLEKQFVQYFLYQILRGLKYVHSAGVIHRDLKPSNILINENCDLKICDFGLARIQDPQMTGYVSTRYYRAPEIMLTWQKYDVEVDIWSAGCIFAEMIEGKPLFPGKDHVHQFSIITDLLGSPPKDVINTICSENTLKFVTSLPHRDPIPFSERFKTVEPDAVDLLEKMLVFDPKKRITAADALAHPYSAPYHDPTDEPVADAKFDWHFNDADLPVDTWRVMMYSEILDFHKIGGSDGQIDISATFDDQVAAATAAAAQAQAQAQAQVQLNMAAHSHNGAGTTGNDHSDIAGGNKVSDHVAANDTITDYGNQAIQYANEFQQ
Kind of assay: pull-down; Hog1-HIS held on His-tag resin in columns, incubated 2 h at 4 °C with 5 mg total protein of NaCl-stressed yeast extracts (hog1 deletion background) diluted in kinase buffer (50 mM TrisHCl pH 7.5, 10 mM MgCl2, 50 µM ATP); washed with sonication buffer with 100 mM and 200 mM NaCl; Pbs2 detected by Western blot with anti-Pbs2; only the target purified.

B1: Pbs2^S248E (enzyme, UniProt P08018 1-668)
chain: MEDKFANLSLHEKTGKSSIQLNEQTGSDNGSAVKRTSSTSSHYNNINADLHARVKAFQEQRALKRSASVGSNQSEQDKGSSQSPKHIQQIVNKPLPPLPVAGSSKVSQRMSSQVVQASSKSTLKNVLDNQETQNITDVNINIDTTKITATTIGVNTGLPATDITPSVSNTASATHKAQLLNPNRRAPRRPLSTQHPTRPNVAPHKAPAIINTPKQSLSARRGLKLPPGGMSLKMPTKTAQQPQQFAPEPSNKKHIETLSNSKVVEGKRSNPGSLINGVQSTSTSSSTEGPHDTVGTTPRTGNSNNSSNSGSSGGGGLFANFSKYVDIKSGSLNFAGKLSLSSKGIDFSNGSSSRITLDELEFLDELGHGNYGNVSKVLHKPTNVIMATKEVRLELDEAKFRQILMELEVLHKCNSPYIVDFYGAFFIEGAVYMCMEYMDGGSLDKIYDESSEIGGIDEPQLAFIANAVIHGLKELKEQHNIIHRDVKPTNILCSANQGTVKLCDFGVSGNLVASLAKTNIGCQSYMAPERIKSLNPDRATYTVQSDIWSLGLSILEMALGRYPYPPETYDNIFSQLSAIVDGPPPRLPSDKFSSDAQDFVSLCLQKIPERRPTYAALTEHPWLVKYRNQDVHMSEYITERLERRNKILRERGENGLSKNVPALHMGGL
Take B1: the binding entry is recorded as “binds”.

B2: Pbs2 (WT) (enzyme, UniProt P08018 1-668)
chain: B1 chain with E248S
For B2, the binding result was “binds”.
